For this assay, the system named is RAW 264.7. Put plainly: cell viability (MTT) relative to vehicle control; higher = more viable cells. As to conditions: stimulus: HMGB1 5 ug/ml, 18 h.
Setting [1] is: compound concentration: 1 ug/ml.

Drawing on the supplement of paper PMC3682954, this text covers cell viability for 51 compounds.

SMILES strings stand for the structures. Several values for one entry are separate records, joined by “and”; a condition that tells them apart may be missing. Equal entries are not always repeated. Structures can show the parent of a compound that is named as a salt. ± gives the standard deviation of the averaged measurements. The list shows a part of the results. Repeats are few or missing, and single values can be far off.

What is called cell viability is a read-out of living cells in per cent, often relative to untreated cells. For `CN1[C@@H]2CC[C@H]1C[C@@H](OC(=O)c1c[nH]c3ccccc13)C2` [Tropisetron HCl], the cell viability (compound concentration: 3 uM) was found to be 125%.
Turning to `CN1[C@@H]2CC[C@H]1C[C@@H](OC(=O)c1c[nH]c3ccccc13)C2`, the cell viability (compound concentration: 3 uM) is 98.8%.
As to `CN1[C@@H]2CC[C@H]1C[C@@H](OC(=O)c1c[nH]c3ccccc13)C2` [Tropisetron], the cell viability (compound concentration: 3 uM) was 101%.
Still for that read-out and setting: with `Oc1ccc(/C=C/c2cc(O)cc(O)c2)cc1` the figure was 98.8%; with `Oc1ccc(/C=C/c2cc(O)cc(O)c2)cc1` [Resveratrol], 104 ± 25%; with `CCOC(=O)C1=C(COCCN)NC(C)=C(C(=O)OC)C1c1ccccc1Cl` (configuration not stated), 102% and 94.6%.
The same measure, in the same setting: the same measure for `CCOC(=O)C1=C(COCCN)NC(C)=C(C(=O)OC)C1c1ccccc1Cl` (configuration not stated) [Amlodipine]: 107 ± 17%.
For `CO[C@H]1O[C@@H]2COC(c3ccccc3)O[C@H]2[C@H](O)[C@H]1O` (single isomer, unassigned; (+)) [(+)-(4,6-O-Benzylidene)methyl-alpha-D-glucopyranoside], the cell viability under setting [1] was 99.9%.
In the case of `COc1ccc(/C=C/C(=O)Nc2ccccc2C(=O)O)cc1OC`, the cell viability (compound concentration: 3 uM) worked out at 96.9 ± 9.3%.
On the same count and under the same terms, the same measure for `COc1ccc(/C=C/C(=O)Nc2ccccc2C(=O)O)cc1OC` [Tranilast]: 108 ± 11%.
Still for that read-out and setting: with `NC(=O)c1ccc2[nH]ccc2c1` the figure was 91%.
Still for that read-out and setting: the same measure for `CCCc1c(-c2ccc(O)cc2)nn(-c2ccc(O)cc2)c1-c1ccc(O)cc1` [1,3,5-tris(4-hydroxyphenyl)-4-propyl-1H-pyrazole]: 84.5%; for `Cc1c(N(C)C)c(=O)n(-c2ccccc2)n1C` [Amidopyrine]: 98.8%.
With `Cc1c(N(C)C)c(=O)n(-c2ccccc2)n1C`, the cell viability (compound concentration: 3 uM) is 109%.
On the same count and under the same terms, with `Oc1c(Cl)cc(Cl)c(Cl)c1Cc1c(O)c(Cl)cc(Cl)c1Cl` [Hexachlorophene] the figure was 136%.
On the same count and under the same terms, the same measure for `Oc1c(Cl)cc(Cl)c(Cl)c1Cc1c(O)c(Cl)cc(Cl)c1Cl`: 77.2 ± 32%.
Regarding `NC(=S)NCCC[C@H](N)C(=O)O` [L-Thiocitrulline], under setting [1], the cell viability amounted to 102%.
As to `O=C1c2c(O)cccc2C([C@@H]2O[C@H](CO)[C@@H](O)[C@H](O)[C@H]2O)c2cc(CO)cc(O)c21` (some centres not stated), the cell viability (compound concentration: 3 uM) was determined as 106%.
Still for that read-out and setting: the same measure for `C=CCc1cccc(/C=N/NC(=O)CN2CCN(Cc3ccccc3)CC2)c1O`: 117%.
Still for that read-out and setting: the same measure for `Cc1cccc(C)c1NC(=O)C(C)N` (configuration not stated): 93.9%; for `Cc1cccc(C)c1NC(=O)C(C)N` (configuration not stated) [Tocainide hydrochloride]: 103 ± 13%.
On to `CCCCc1cc2ccccc2c(OCCN(C)C)n1` [Dimethisoquin hydrochloride], for which the cell viability (compound concentration: 3 uM) was found to be 121%.
On the same count and under the same terms, the same measure for `CC(C(=O)O)c1ccc2c(c1)[nH]c1ccc(Cl)cc12` (configuration not stated): 109%; for `CC(C(=O)O)c1ccc2c(c1)[nH]c1ccc(Cl)cc12` (configuration not stated) [Carprofen]: 94.9%; for `CN(C)C(=O)C(CCN1CCC(O)(c2ccc(Cl)cc2)CC1)(c1ccccc1)c1ccccc1` [Loperamide]: 109%.
Still for that read-out and setting: with `CN(C)C(=O)C(CCN1CCC(O)(c2ccc(Cl)cc2)CC1)(c1ccccc1)c1ccccc1` [Loperamide hydrochloride] the figure was 97.9 ± 7.4%; with `CN(C)C(=O)C(CCN1CCC(O)(c2ccc(Cl)cc2)CC1)(c1ccccc1)c1ccccc1`, 102%.
On the same count and under the same terms, the same measure for `COc1cc(C[C@@H](CO)[C@H](CO)Cc2ccc(O)c(OC)c2)ccc1O`: 98.2%; for `C/C1=C2/[N-][C@H]([C@H](CC(N)=O)[C@@]2(C)CCC(=O)NC[C@@H](C)OP(=O)([O-])O[C@H]2[C@@H](O)[C@@H](n3cnc4cc(C)c(C)cc43)O[C@@H]2CO)[C@]2(C)N=C(/C(C)=C3N=C(/C=C4N=C1[C@@H](CCC(N)=O)C\4(C)C)[C@@H](CCC(N)=O)[C@]\3(C)CC(N)=O)[C@@H](CCC(N)=O)[C@]2(C)CC(N)=O.[CH2-][C@H]1O[C@H](n2cnc3c(N)ncnc32)[C@@H](O)[C@H]1O.[Co+3]`: 104%; for `Nc1nc2[nH]cnc2c(=S)[nH]1`: 99.1 ± 5.7%.
Consider `CC[N+](CC)(CC)CCOc1ccc(/C=C/c2ccccc2)cc1`, for which the cell viability (compound concentration: 3 uM) was found to be 116%.
`Cc1cc(O)c2c(c1)C(=O)c1cccc(O)c1C2=O` [Chrysophanic acid]: the cell viability under setting [1] is 93.9%.
Consider `NC(=O)c1cn(Cc2c(F)cccc2F)nn1` [Rufinamide], for which, where the note is “compound concentration: 3 uM”, the cell viability turned out to be 104%.
Same read-out and setting: with `CC(C(=O)O)c1ccc(-c2ccccc2)c(F)c1` (configuration not stated) the figure was 110% and 93.8%; with `CC(C(=O)O)c1ccc(-c2ccccc2)c(F)c1` (configuration not stated) [Flurbiprofen], 104 ± 11%.
Still for that read-out and setting: the same measure for `O=C(OCC(O)CO)c1ccccc1Nc1ccnc2cc(Cl)ccc12` (configuration not stated) [Glafenine hydrochloride]: 108%.
The same measure, in the same setting: with `O=C(OCC(O)CO)c1ccccc1Nc1ccnc2cc(Cl)ccc12` (configuration not stated) the figure was 110%.
Consider `O=c1c(O)c(-c2cccc(O)c2)oc2ccccc12`, for which the cell viability under setting [1] came to 83%.
On the same count and under the same terms, with `C[C@H](CCC(=O)O)[C@H]1CC[C@H]2[C@@H]3[C@H](O)C[C@@H]4C[C@H](O)CC[C@]4(C)[C@H]3C[C@H](O)[C@]12C` [Cholic acid] the figure was 98%; with `O=c1ccc2cc(O)c(O)cc2o1` [Esculetin], 112%.
With `COc1cc([S+](C)[O-])ccc1-c1nc2cccnc2[nH]1` (configuration not stated) [Sulmazole], where the note is “compound concentration: 3 uM”, the cell viability worked out at 104%.
Same read-out and setting: the same measure for `COc1cc([S+](C)[O-])ccc1-c1nc2cccnc2[nH]1` (configuration not stated): 111%.
As for `O=c1c(O)c(-c2ccc(O)cc2)oc2cc(O)ccc12`, the cell viability under setting [1] worked out at 81.2%.
As to `CN1CCN(C2=Nc3cc(F)ccc3Cc3ccccc32)CC1` [Fluperlapine], the cell viability (compound concentration: 3 uM) is 94.9 ± 3.4%.
The same measure, in the same setting: with `C[C@H]1O[C@@H](O[C@H]2[C@@H](O)C[C@H](O[C@H]3[C@@H](O)C[C@H](O[C@H]4CC[C@@]5(C)[C@H](CC[C@@H]6[C@@H]5C[C@@H](O)[C@]5(C)[C@@H](C7=CC(=O)OC7)CC[C@]65O)C4)O[C@@H]3C)O[C@@H]2C)C[C@H](O)[C@@H]1O` the figure was 95.5%.
For the compound `C[C@H]1O[C@@H](O[C@H]2[C@@H](O)C[C@H](O[C@H]3[C@@H](O)C[C@H](O[C@H]4CC[C@@]5(C)[C@H](CC[C@@H]6[C@@H]5C[C@@H](O)[C@]5(C)[C@@H](C7=CC(=O)OC7)CC[C@]65O)C4)O[C@@H]3C)O[C@@H]2C)C[C@H](O)[C@@H]1O` [Digoxin], the cell viability reads like this: under setting [1], 102%; (compound concentration: 3 uM) 114%.
On to `NC(N)=NC(N)=Nc1cccc(Cl)c1` [1-(m-Chlorophenyl)-biguanide hydrochloride], for which the cell viability (compound concentration: 3 uM) worked out at 110%.
`CS(=O)(=O)OCCCCOS(C)(=O)=O`: where the note is “compound concentration: 3 uM”, the cell viability was found to be 103 ± 7%.
On to `CS(=O)(=O)OCCCCOS(C)(=O)=O` [Busulfan], for which the cell viability (compound concentration: 3 uM) was 96.9%.
Still for that read-out and setting: with `Cc1c(NC(=O)c2cccnc2)c(=O)n(-c2ccccc2)n1C` [Nifenazone] the figure was 101%.
Same read-out and setting: the same measure for `Cc1c(NC(=O)c2cccnc2)c(=O)n(-c2ccccc2)n1C`: 111%.
